Laboratory results from PubChem BioAssay AID2685 (National Center for Advancing Translational Sciences (NCATS), 2010).
This is one part of the list. The main result of the screen is listed elsewhere. These columns were measured beside it and carry no call. Most of these compounds were active or inconclusive in the main read-out, so they are no random draw. Words in brackets tell the shape of the fitted curve; partial curves, single points and poor fits give uncertain potencies.

Assay: qHTS Assay for Lipid Storage Modulators in Drosophila S3 Cells;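 on cell number change: cells counted by Cell Tracker Red CMTPX staining in the red channel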
Conditions: BODIPY lipid droplet fluorescence, 18-24 h; for cell number change: measured here: cell count max response, cells fed with added oleic acid
In short: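 Drosophila S3 cells loaded with oleic acid (400 uM, as added) and compounds at several concentrations; lipid droplets imaged by 488-nm laser-scanning cytometry, 500–530 nm intensity and object ratio to cell channel. Percent activity normalized to 20 uM Triacsin C.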

[1] = measured here: cell number channel AC50, cells fed with added oleic acid
[2] = measured here: lipid fluorescence (Fed channel) AC50, cells fed with added oleic acid

| SMILES | cell number change | AC50 [1] | AC50 [2] |
| --- | --- | --- | --- |
| CCC(=O)Nn1c(C)nnc1C | -31.2% | 3.66 µM [falling, full curve] | 3.26 µM [falling, full curve] |
| Cc1cc(Cl)ccc1OCC(=O)NCCCn1ccnc1 | 21.8% | – | 6.51 µM [rising, single point] |
| COc1ccc(N2C(=O)[C@@H]3[C@H](C2=O)[C@H]2c4ccccc4C=CN2[C@@H]3C(=O)Nc2ccccc2)cc1 | 0.855% | – | – |
| COc1cc(C(=O)NCc2ccc3c(c2)OCO3)ccc1OCc1c(C)noc1C | -1.6% | – | 6.51 µM [falling, single point] |
| O=C(Cc1cccs1)Nc1ccc(F)c(S(=O)(=O)N2CCOCC2)c1 | -17.4% | – | – |
| CSc1ncccc1C(=O)N1CCCC(Nc2ccc(C)c(C)c2)C1 (stereo not given) | 41.4% | 7.31 µM [rising, partial curve, poor fit] | 6.51 µM [falling, single point] |
| COc1ccccc1CCc1nnc(CCC(=O)NCC2CCCO2)o1 (stereo not given) | – | – | 29.1 µM [rising, single point] |
| CCC1C/C(=C\c2cc(OC)c(OC)cc2OC)C(=O)/C(=C/c2cc(OC)c(OC)cc2OC)C1 (stereo not given) | 0.709% | – | – |
| COc1ccc(NC(=S)NC(NC(=O)c2ccccc2Cl)C(Cl)(Cl)Cl)c([N+](=O)[O-])c1 (stereo not given) | 31.1% | 1.3 µM [rising, full curve] | 6.51 µM [rising, single point] |
| COc1ccc(OC)c(CCNC(=O)C(=O)Nc2ccc3nc4n(c(=O)c3c2)CCCCC4)c1 | -12.9% | – | 13 µM [falling, partial curve, poor fit] |
| COc1ccc(CN(C(=O)CSc2nnc(-c3c[nH]c4ccccc34)o2)c2ccc(F)cc2)cc1OC | -40.6% | 20.6 µM [falling, single point] | 18.4 µM [falling, single point] |
| O=C(COC(=O)c1cccs1)NC1CCCC1 | – | – | 29.1 µM [rising, single point] |
| CCOc1ccc(NC(=O)C2CCCN(S(=O)(=O)c3c(C)noc3C)C2)cc1 (stereo not given) | 21.4% | – | 18.4 µM [rising, partial curve, poor fit] |
| Cc1cc(C(=O)N/N=C/c2ccc(Br)o2)n[nH]1 | 10.1% | – | 5.8 µM [rising, single point] |
| CC(=O)NCCC(=O)Nc1ccc(C(N)=O)cc1 | -46% | – | 25.9 µM [falling, single point] |
| CCOc1ccc(NC(=O)CC2C(=O)N(c3ccc(OCC)cc3)C(=S)N2C2CC2)cc1 (stereo not given) | 5.06% | 2.31 µM [falling, single point] | 1.16 µM [falling, partial curve] |
| COCCOC(=O)c1c(C)nc(SCC(=O)Nc2ccc(C)cc2)c(C#N)c1-c1ccco1 | 20.4% | 0.58 µM [rising, partial curve, poor fit] | 0.58 µM [rising, partial curve] |
| COc1ccc(C2C(C(=O)N3CCN(c4ccccn4)CC3)CCC(=O)N2c2cc(OC)c(OC)c(OC)c2)cc1 (stereo not given) | 59.8% | – | – |
| COc1ccc(S(N)(=O)=O)cc1C(=O)OCC(=O)NC(C)(C#N)C1CC1 (stereo not given) | -4.42% | – | 0.82 µM [rising, single point] |
| Cc1ccc2c(c1)c1c(n2CC(O)Cn2nc(C)c(Br)c2C)CCCC1 (stereo not given) | 6.28% | – | – |

| SMILES | cell number change | AC50 [1] | AC50 [2] |
| --- | --- | --- | --- |
| Cc1ccc(COC(=O)CCN=C2NS(=O)(=O)c3ccccc32)cc1 | -35% | 16.4 µM [falling, partial curve, poor fit] | – |
| O=C(/C=C/c1cccc(F)c1)NCc1ccc2c(c1)OCO2 | 14.6% | – | 0.82 µM [rising, full curve, poor fit] |
| CN=C1S/C(=C\c2cn(CC(=O)OC)c3ccccc23)C(=O)N1C | 19.8% | 2.59 µM [rising, single point] | – |
| O=C(CSc1nccn1Cc1ccccc1)Nc1nccs1 | 6.17% | – | 20.6 µM [rising, single point] |
| COc1ccc(C(CNC(=O)CCNS(=O)(=O)c2ccc(C)cc2)N2CCOCC2)cc1 (stereo not given) | -98.3% | 20.6 µM [falling, single point] | 29.1 µM [rising, single point] |
| COC(=O)c1c(NC(=O)CCS(=O)(=O)c2ccccc2)sc2c1CCN(C)C2 | 15.9% | – | 25.9 µM [rising, single point] |
| CC(=O)Nc1ccc(S(=O)(=O)NC(C)CCc2ccccc2)cc1 (stereo not given) | -21.2% | – | 23.1 µM [rising, single point] |
| CSc1nc2ccccc2n1CC(=O)N1CCCCC1 | 34.1% | 29.1 µM [rising, single point] | – |
| O=C(NCCCO)c1nc2ccccc2s1 | -3.17% | – | – |
| O=C(O)C1Cc2ccccc2CN1C(=O)COc1ccc(Cl)cc1 (stereo not given) | -7.26% | 3.66 µM [falling, partial curve, poor fit] | – |
| CN(C)CCCN1C(=O)c2oc3ccccc3c(=O)c2C1c1cccs1 (stereo not given) | -7.93% | – | 6.51 µM [falling, single point] |
| CCc1ccc(N(CC(=O)NC(C)(C)CC)C(=O)CCC(=O)Nc2nccs2)cc1 | -8.14% | – | 29.1 µM [falling, single point] |
| O=C(Nc1ccccc1C(=O)O)c1cccc(C(=O)Nc2ccccc2C(=O)O)c1 | 2.64% | – | – |
| CCn1cc(C(=O)NC2CCCCCC2)c2cc(OC)c(OC)cc2c1=O | 109% | – | – |
| CC(C)c1ccc2[nH]c3c(c2c1)CCCC3=O | 65.8% | 13 µM [rising, single point] | 0.651 µM [falling, single point] |
| COCCn1c(=NC(=O)c2cc(-c3cccs3)nc3ccccc23)sc2cc(S(N)(=O)=O)ccc21 | 34.7% | 0.164 µM [falling, full curve, poor fit] | – |
| COc1ccc(OC)c(C(=O)NC2CCSc3ccccc32)c1 (stereo not given) | -0.855% | – | 0.82 µM [rising, partial curve, poor fit] |
| CCOc1ccccc1NC(=O)CSc1nnc(CNC(=O)c2ccccc2F)o1 | 3.68% | – | – |
| CCN1CCN(CCCNC(=O)c2ccc3c(c2)NC(=O)c2ccccc2S3)CC1 | -9.83% | – | 25.9 µM [falling, partial curve] |

Grouped by structure, those above with an aryl thioether with sulfur outside any ring.

| SMILES | cell number change | AC50 [1] | AC50 [2] |
| --- | --- | --- | --- |
| CSc1ncccc1C(=O)N1CCCC(Nc2ccc(C)c(C)c2)C1 (stereo not given) | 41.4% | 7.31 µM [rising, partial curve, poor fit] | 6.51 µM [falling, single point] |
| COc1ccc(CN(C(=O)CSc2nnc(-c3c[nH]c4ccccc34)o2)c2ccc(F)cc2)cc1OC | -40.6% | 20.6 µM [falling, single point] | 18.4 µM [falling, single point] |
| COCCOC(=O)c1c(C)nc(SCC(=O)Nc2ccc(C)cc2)c(C#N)c1-c1ccco1 | 20.4% | 0.58 µM [rising, partial curve, poor fit] | 0.58 µM [rising, partial curve] |
| O=C(CSc1nccn1Cc1ccccc1)Nc1nccs1 | 6.17% | – | 20.6 µM [rising, single point] |
| CSc1nc2ccccc2n1CC(=O)N1CCCCC1 | 34.1% | 29.1 µM [rising, single point] | – |
| CCOc1ccccc1NC(=O)CSc1nnc(CNC(=O)c2ccccc2F)o1 | 3.68% | – | – |
